Measurements from patent US5246935A, “Piperazinyl derivatives and methods of treating central nervous system ailments relating to the 5-HT2 receptor system” (Novo Nordisk A/S, priority 1990, dated 1993).

Tested on: acetic acid-induced writhings in mice
Experiment: Antagonism of Acetic Acid-Induced Writhings In Mice
Type: in vivo, mouse (NMRI)
Conditions: s.c. 30 min before acetic acid 0.5 per cent i.p.; 50 per cent protection
Method: Antagonism of Acetic Acid-Induced Writhings In Mice
In mice i.p. injection of acetic acid induces a writhing syndrome which is antagonized by analgesics (Siegmund et al., 1957; Eckhardt et al., 1957).
Acetic acid 0.5 per cent is injected i.p. (0.15 ml/10 g body weight) to 6 mice (NMRI, either sex weighing 20-25 g) pretreated with physiological saline (controls) and to 6 mice pretreated with test substance. In the controls acetic acid induces a syndrome characterized by contraction of abdomen, turning of trunk and extension of hind limbs. Saline and test substances are administered s.c. 30 min. before acetic acid. The number of writhings is counted 5-15 min. after injection of acetic acid.
The activity is expressed as per cent protection: [formula]
The effect of active substances is evaluated by a dose response curve, log dose on the abscissa, and per cent protection on the ordinate. The potency is expressed as the dose (ED50 in mg/kg giving 50 per cent protection against writhings.
Analgesics and various other drugs inhibit acetic acidinduced writhings in mice. This test is used as a screening test for analgesics. Additional results from other screening tests are required to exclude active anti-writhing substances without analgesic effect.

CN1CC[C@]23c4c5ccc(O)c4O[C@H]2[C@@H](O)C=C[C@H]3[C@H]1C5 [Morphine, reference compound]
Antagonism of acetic acid-induced writhings in mice, ED50: 0.26 mg/kg
